PubChem BioAssay AID1259254 – NCATS – 2017
Shown is one part, drawn at random, of about 59,000 reagents. Over the whole deposit, about 1,550 (2.6%) were called active. 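G2 share is only a proxy for re-replication; each gene was hit by three separate siRNAs, and active genes were retested.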 Reagents against one gene are numbered here. Further read-outs or replicates are left out here. Reagent sequences are not shown. Not given: the amount of reagent.

Aim: 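Finding genes that stop cells copying their DNA twice in one cycle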 (primary screen)
System: human HCT116 colorectal cancer cells
Reagent: single siRNA against human genes
Timing: 3 days
Detection: 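Imaged Hoechst DNA stain sorts each cell into a cycle phase by DNA amount; per plate, G2 fraction set to 0% for non-targeting and 100% for GMNN siRNA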
Reading the numbers: G2 robust z-score: higher = more G2 cells, more excess DNA replication
Hit rule: 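An siRNA counts as active if its G2 robust z-score lies at least 5 MADs above the screen median; here such calls match roughly 38% of GMNN control or more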

G2 robust z-score, by gene and reagent
S100A7P3: #1 -0.975 inactive; #2 -0.419 inactive; #3 0.387 inactive
CALHM6: #1 2.22 inactive; #2 -0.116 inactive; #3 1.7 inactive
FYRD1: #1 -0.221 inactive; #2 2.88 inactive; #3 1.96 inactive
SUPT4H1: #1 3.39 inactive; #2 0.256 inactive; #3 2.7 inactive
TSPYL1: #1 1.7 inactive; #2 -1.13 inactive; #3 -0.223 inactive
PFKFB3: #1 1.21 inactive; #2 0.356 inactive; #3 -0.673 inactive
SYN2: #1 -0.537 inactive; #2 -0.96 inactive; #3 3.51 inactive
FAM78B: #1 -0.368 inactive; #2 -1.18 inactive; #3 2.78 inactive
OR1N1: #1 -0.658 inactive; #2 1.75 inactive; #3 -0.537 inactive
NREP: #1 0.89 inactive; #2 0.952 inactive; #3 -0.706 inactive
NME8: #1 -1.59 inactive; #2 0.847 inactive; #3 0.525 inactive
DIAPH3: #1 -0.51 inactive; #2 2.74 inactive; #3 -0.263 inactive
MRPL18: #1 -0.731 inactive; #2 6.71 active; #3 0.449 inactive
WDR54: #1 -0.416 inactive; #2 -0.714 inactive; #3 -0.785 inactive
PRKDC: #1 8.96 active; #2 -0.461 inactive; #3 -0.133 inactive
GTPBP4: #1 2.2 inactive; #2 1.98 inactive; #3 1.01 inactive
ZNF687: #1 -0.453 inactive; #2 0.00263 inactive; #3 -0.256 inactive
MAGEE1: #1 -0.916 inactive; #2 0.0328 inactive; #3 -0.84 inactive
NGLY1: #1 3.29 inactive; #2 0.0335 inactive; #3 1.03 inactive
MAGED4B: #1 -0.208 inactive; #2 -0.736 inactive; #3 -0.254 inactive
SSBP3: #1 0.963 inactive; #2 2.66 inactive; #3 0.0791 inactive
NCAM1: #1 -1.41 inactive; #2 1.65 inactive; #3 -0.68 inactive
FSTL5: #1 -0.433 inactive; #2 -0.331 inactive; #3 -0.326 inactive

Reformatted: 12 of the entries above.
CALHM6 #1 | G2 robust z-score: 2.22; Outcome: inactive
CALHM6 #2 | G2 robust z-score: -0.116; Outcome: inactive
CALHM6 #3 | G2 robust z-score: 1.7; Outcome: inactive
FYRD1 #1 | G2 robust z-score: -0.221; Outcome: inactive
FYRD1 #2 | G2 robust z-score: 2.88; Outcome: inactive
FYRD1 #3 | G2 robust z-score: 1.96; Outcome: inactive
SUPT4H1 #1 | G2 robust z-score: 3.39; Outcome: inactive
SUPT4H1 #2 | G2 robust z-score: 0.256; Outcome: inactive
SUPT4H1 #3 | G2 robust z-score: 2.7; Outcome: inactive
TSPYL1 #1 | G2 robust z-score: 1.7; Outcome: inactive
TSPYL1 #2 | G2 robust z-score: -1.13; Outcome: inactive
TSPYL1 #3 | G2 robust z-score: -0.223; Outcome: inactive
